{
  "source": "patent US9624233B2",
  "about": "“Compounds for treating pruritic conditions” (priority 2015, dated 2017)",
  "conditions_in_all_cases": "1.0E−05M",
  "key": {"PCP": {"test_system": "PCP", "assay": "Abuse liability binding screen, PCP (antagonist radioligand)", "protocol": "(§1) Compound binding was calculated as a % inhibition of the binding of a radioactively labeled ligand specific for each target."}, "[1]": {"test_system": "Cl^− channel (GABA-gated)", "assay": "Abuse liability binding screen, Cl− channel (GABA-gated) (antagonist radioligand)", "protocol": "as §1"}, "BZD (central)": {"test_system": "BZD (central)", "assay": "Abuse liability binding screen, BZD (central) (agonist radioligand)", "protocol": "as §1"}, "ER (non-selective) (h)": {"test_system": "ER (non-selective) (h)", "assay": "Abuse liability binding screen, ER (non-selective) (h) (agonist radioligand)", "parameters": "species or system human", "protocol": "as §1"}, "Na^+ channel (site 2)": {"test_system": "Na^+ channel (site 2)", "assay": "Abuse liability binding screen, Na+ channel (site 2) (antagonist radioligand)", "protocol": "as §1"}, "kainate": {"test_system": "kainate", "assay": "Abuse liability binding screen, kainate (agonist radioligand)", "protocol": "as §1"}, "GABA transporter": {"test_system": "GABA transporter", "assay": "Abuse liability binding screen, GABA transporter (antagonist radioligand)", "protocol": "as §1"}, "AMPA": {"test_system": "AMPA", "assay": "Abuse liability binding screen, AMPA (antagonist radioligand)", "protocol": "as §1"}, "NMDA": {"test_system": "NMDA", "assay": "Abuse liability binding screen, NMDA (antagonist radioligand)", "protocol": "as §1"}, "[2]": {"test_system": "glycine (strychnine−insensitive)", "assay_type": "binding", "protocol": "as §1"}},
  "data": [
    {"smiles": "Oc1ccc2c3c1O[C@H]1[C@@H](O)CC[C@@]4(O)[C@@H](C2)N(CC2CCC2)CC[C@]314", "note": "[Nalbuphine, nalbuphine]", "values": [
      {"measurement": "% Inhibition of Control Specific Binding 1st", "setting": "PCP", "result": "−4.3", "unit": "%"},
      {"measurement": "% Inhibition of Control Specific Binding 2nd", "setting": "PCP", "result": 12.0, "unit": "%"},
      {"measurement": "% Inhibition of Control Specific Binding Mean", "setting": "PCP", "result": 3.9, "unit": "%"},
      {"measurement": "% Inhibition of Control Specific Binding 1st", "setting": "[1]", "result": "−15.7", "unit": "%"},
      {"measurement": "% Inhibition of Control Specific Binding 2nd", "setting": "[1]", "result": "−4.6", "unit": "%"},
      {"measurement": "% Inhibition of Control Specific Binding Mean", "setting": "[1]", "result": "−10.2", "unit": "%"},
      {"measurement": "% Inhibition of Control Specific Binding 1st", "setting": "BZD (central)", "result": "−16.7", "unit": "%"},
      {"measurement": "% Inhibition of Control Specific Binding Mean", "setting": "BZD (central)", "result": "−6.7", "unit": "%"},
      {"measurement": "% Inhibition of Control Specific Binding 1st", "setting": "ER (non-selective) (h)", "result": 0.5, "unit": "%"},
      {"measurement": "% Inhibition of Control Specific Binding 2nd", "setting": "ER (non-selective) (h)", "result": "−1.8", "unit": "%"},
      {"measurement": "% Inhibition of Control Specific Binding Mean", "setting": "ER (non-selective) (h)", "result": "−0.6", "unit": "%"},
      {"measurement": "% Inhibition of Control Specific Binding 1st", "setting": "Na^+ channel (site 2)", "result": 3.2, "unit": "%"},
      {"measurement": "% Inhibition of Control Specific Binding 2nd", "setting": "Na^+ channel (site 2)", "result": 6.9, "unit": "%"},
      {"measurement": "% Inhibition of Control Specific Binding Mean", "setting": "Na^+ channel (site 2)", "result": 5.1, "unit": "%"},
      {"measurement": "% Inhibition of Control Specific Binding 1st", "setting": "kainate", "result": "−11.0", "unit": "%"},
      {"measurement": "% Inhibition of Control Specific Binding 2nd", "setting": "kainate", "result": "−37.0", "unit": "%"},
      {"measurement": "% Inhibition of Control Specific Binding Mean", "setting": "kainate", "result": "−24.0", "unit": "%"},
      {"measurement": "% Inhibition of Control Specific Binding 1st", "setting": "GABA transporter", "result": 0.9, "unit": "%"},
      {"measurement": "% Inhibition of Control Specific Binding 2nd", "setting": "GABA transporter", "result": "−3.0", "unit": "%"},
      {"measurement": "% Inhibition of Control Specific Binding Mean", "setting": "GABA transporter", "result": "−1.1", "unit": "%"},
      {"measurement": "% Inhibition of Control Specific Binding 1st", "setting": "AMPA", "result": "−1.0", "unit": "%"},
      {"measurement": "% Inhibition of Control Specific Binding 2nd", "setting": "AMPA", "result": "−8.0", "unit": "%"},
      {"measurement": "% Inhibition of Control Specific Binding Mean", "setting": "AMPA", "result": "−4.5", "unit": "%"},
      {"measurement": "% Inhibition of Control Specific Binding 1st", "setting": "NMDA", "result": "−4.2", "unit": "%"},
      {"measurement": "% Inhibition of Control Specific Binding 2nd", "setting": "NMDA", "result": "−13.4", "unit": "%"},
      {"measurement": "% Inhibition of Control Specific Binding Mean", "setting": "NMDA", "result": "−8.8", "unit": "%"},
      {"measurement": "% Inhibition of Control Specific Binding 1st", "setting": "[2]", "result": "−9.7", "unit": "%"},
      {"measurement": "% Inhibition of Control Specific Binding Mean", "setting": "[2]", "result": "−9.8", "unit": "%"}
    ]}
  ]
}
